Laboratory results: patent US20100093028A1 (DANISCO US, published 2010)
Numbering of substitutions follows the chain as printed. Names and notes keep the numbering of the source. No constants are given. Whether binding was seen depends on the method and setting. Some entries that bind do so weakly or less than the wild type. For part of these data: Where a sequence is shown, tags or fusion partners need not be part of it.

Protein sequences, listed by entry. Tags and fused reporters are not part of them. Lines headed by an entry give the natural chain unless they say otherwise; changes in a name come on top. Chains listed by the source or under a name are the forms on record and can include a tag or linker. Residues count along the entry.
vascular endothelial growth factor (P15692-4, form named): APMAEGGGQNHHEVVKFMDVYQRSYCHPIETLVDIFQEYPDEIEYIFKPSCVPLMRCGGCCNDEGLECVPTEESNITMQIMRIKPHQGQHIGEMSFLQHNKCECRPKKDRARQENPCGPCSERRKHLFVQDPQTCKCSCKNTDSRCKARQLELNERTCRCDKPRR
UniProt P01375, residues 77-233: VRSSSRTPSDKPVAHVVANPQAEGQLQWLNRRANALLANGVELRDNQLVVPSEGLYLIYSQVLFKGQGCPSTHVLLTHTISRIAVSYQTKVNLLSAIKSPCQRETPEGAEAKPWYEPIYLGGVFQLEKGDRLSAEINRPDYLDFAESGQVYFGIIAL
UniProt P01137, residues 279-390: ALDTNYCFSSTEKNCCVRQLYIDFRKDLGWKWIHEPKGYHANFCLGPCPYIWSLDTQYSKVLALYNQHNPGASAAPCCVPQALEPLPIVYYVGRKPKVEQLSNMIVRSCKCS

Tests used:
[1] = biological target: T1, vascular endothelial growth factor (UniProt P15692-4 27-191, limits assumed, biotin label (Example 5), site not stated); experiment: ECL (BioVeris) competition, labeled monoclonal antibody against VEGF as competitor; this molecule is the weaker binder
T1 construct: also called VEGF; VegF

[2] = biological target: T1, vascular endothelial growth factor; experiment: BioVeris ECL competition, monoclonal antibody as competitor
[3] = biological target: T1, vascular endothelial growth factor; experiment: BioVeris ECL competition, labeled Anti-VegF antibody as competitor
[4] = biological target: T1, vascular endothelial growth factor; experiment: sentence summing up the BioVeris competition data of Table 7
[5] = biological target: T2, Tumor necrosis factor α (UniProt P01375 77-233); experiment: as above
T2 construct: also called TNFα; TNF

[6] = biological target: T3, fibroblast growth factor 5 (UniProt P12034 21-268, limits assumed); experiment: as above
T3 construct: also called FGF-5; FGF5
T3 sequence (looked up): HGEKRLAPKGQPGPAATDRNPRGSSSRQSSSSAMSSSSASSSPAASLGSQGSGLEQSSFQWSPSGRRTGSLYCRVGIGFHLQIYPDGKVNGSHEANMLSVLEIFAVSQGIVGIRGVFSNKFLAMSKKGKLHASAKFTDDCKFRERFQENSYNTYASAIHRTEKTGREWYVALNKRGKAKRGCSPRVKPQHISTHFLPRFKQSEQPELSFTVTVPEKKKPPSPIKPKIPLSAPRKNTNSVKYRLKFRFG

[7] = biological target: T4, Transforming growth factor β1 (UniProt P01137 279-390); experiment: as above
T4 construct: also called TGFβ1; TGFβ

[8] = biological target: T1, vascular endothelial growth factor; experiment: sentence summing up the BioVeris competition data
[9] = biological target: T1, vascular endothelial growth factor; experiment: sentence summing up the BioVeris competition data; no row for this molecule in Table 7
[10] = biological target: T1, vascular endothelial growth factor; experiment: ECL (BioVeris) competition, labeled monoclonal antibody against VEGF as competitor

B1: 2BBIck81 (designed binder)
chain: DDESSKPCCDQCACTKSNPPQCRCSDMRLNSCHSACKSCACYNLYGWTCFCVDITDFCYEPCKPSEDDKEN
For B1, the binding [1] was “binds”, the binding [2] was “binds” and the binding [3] was “binds”.

ACYNLYGWTC [CK37281 peptide] was tested, and the binding [3] was “binds”.

B2: BBIt-AV-A13I-L29P-A40K-F50T-V52A (designed binder)
chain: DPDDESSKPCCDQCICTKSNPPQCRCSDMRPNSCHSACKSCKCYNLYGWTCTCADITDFCYEPCKPSE
notes: also called TA5; quintuple variant
B2 was tested, and the binding [4] was “binds”.

B3: BBIt-AV-A13I-A40K-F50T-V52A (designed binder)
chain: B2 chain with P31L
notes: the entry as printed carries an N-terminal DP from the linker
In the case of B3, the binding [4] is reported as “binds”.

B4: BBIt-AV-A13I-S25K-M27A-L29R-S31A-A40H-F50R-V52L (designed binder)
chain: B2 chain with S27K, M29A, P31R, S33A, K42H, T52R, A54L
notes: the entry carries an N-terminal DP; also called RL8
B4 was tested, and the binding [4] was “binds”.

B5: BBIt-AV-A13I-S25K-M27A-L29R-S31E-A40K-F50Q-V52Q (designed binder)
chain: B2 chain with S27K, M29A, P31R, S33E, T52Q, A54Q
notes: the entry carries an N-terminal DP; also called QQ8
For B5, the binding [4] was “binds”.

B6: BBIt-AV-A13I-S25R-M27A-L29P-S31A-A40H-F50K-V52T (designed binder)
chain: B2 chain with S27R, M29A, S33A, K42H, T52K, A54T
notes: the entry carries an N-terminal DP; also called KT8
In the case of B6, the binding [4] is reported as “binds”.

B7: 1BBIck81 (designed binder)
chain: DDESSKPCCDQCACYNLYGWTCRCSDMRLNSCHSACKSCICALSYPAQCFCVDITDFCYEPCKPSEDDKEN
B7 was tested, and the binding [3] was “binds”.

B8: BBIt-VEGKD-A13I-S25K-L29P-V52K (designed binder)
chain: DPDDESSKPCCDQCICTKSNPPQCRCKDMRPNSCHSACKSCICKYDLYWWCFCKDITDFCYEPCKPSE
notes: also called VegKD-Q
B8 was tested, and the binding [4] was “binds”.

B9: BBIt-TNFα-T1-A13I-S25R-M27A-L29P-S31A-F50K-V52T (designed binder)
chain: DPDDESSKPCCDQCICTKSNPPQCRCRDARPNACHSACKSCACRYWQDIPCKCTDITDFCYEPCKPSE
notes: also called BBIt-TNF-T1
With B9 the binding [5] was “binds”.

B10: BBIt-VEGF-V1-A13I-S25R-M27A-L29P-S31A-F50K-V52T (designed binder)
chain: B9 chain with R44S, Y45K, W46H, Q47S, D48Q, P50T
notes: also called BBIt-AV-V1
In the case of B10, the binding [4] is reported as “binds”.

B11: BBIt-VEGF-V5-A13I-S25R-M27A-L29P-S31A-F50K-V52T (designed binder)
chain: B9 chain with R44K, Y45P, W46S, Q47S, D48A, I49S, P50S
notes: also called BBIt-AV-V5
In the case of B11, the binding [4] is reported as “binds”.

B12: BBIt-VEGF-V2-A13I-S25R-M27A-L29P-S31A-F50K-V52T (designed binder)
chain: B9 chain with R44K, Y45T, W46N, Q47P, D48S, I49G, P50S
notes: also called BBIt-AV-V2
With B12 the binding [4] was “binds”.

B13: BBIt-VEGF-V3-A13I-S25R-M27A-L29P-S31A-F50K-V52T (designed binder)
chain: B9 chain with Y45P, W46T, Q47G, D48H, I49S, P50L
notes: also called BBIt-AV-V3
For B13, the binding [4] was “binds”.

B14: BBIt-VEGF-V4-A13I-S25R-M27A-L29P-S31A-F50K-V52T (designed binder)
chain: B9 chain with R44K, Y45H, W46S, Q47A, D48K, I49A, P50E
notes: also called BBIt-AV-V4
With B14 the binding [4] was “binds”.

B15: BBIt-VEGF-V6-A13I-S25R-M27A-L29P-S31A-F50K-V52T (designed binder)
chain: B9 chain with R44P, Y45V, W46T, Q47K, D48R, I49V, P50H
notes: also called BBIt-AV-V6
B15 was tested, and the binding [4] was “binds”.

B16: MM007-Q-BBIt-FGF-5 (designed binder)
chain: B2 chain with K42A, Y44R, N45T, L46Q, Y47P, G48Y, W49P, T50L
notes: also called BBIt-MM007-Q-A13I-L29P-F50T-V52A
B16 was tested, and the binding [6] was “binds”.

B17: FGFps2-Q-BBIt-FGF-5 (designed binder)
chain: B2 chain with K42A, Y44T, N45W, L46I, Y47D, G48S, W49T, T50P
notes: also called BBIt-FGFps2-Q-A13I-L29P-F50T-V52A
In the case of B17, the binding [6] is reported as “binds”.

B18: PEN3-Q-BBIt-TGFβ1 (designed binder)
chain: DPDDESSKPCCDQCICTKSNPPQCRCSDMRPNSCHSACKSCACPENINVLPCTCADITDFCYEPCKPSE
notes: also called BBIt-PEN3-Q-A13I-L29P-F50T-V52A
B18 was tested, and the binding [7] was “binds”.

B19: MM021W-Q-BBIt-TGFβ1 (designed binder)
chain: B2 chain with K42A, Y44K, N45H, L46N, Y47V, G48D, T50L
notes: also called MM0212-Q-BBIt-TGF; BBIt-MM021W-Q-A13I-L29P-F50T-V52A
B19 was tested, and the binding [7] was “binds”.

B20: BBIt-TNFα-T2-A13I-S25R-M27A-L29P-S31A-F50K-V52T (designed binder)
chain: B9 chain with R44A, Y45P, W46E, Q47P, D48I, I49L, P50A
notes: also called BBIt-TNF-T2
With B20 the binding [5] was “binds”.

B21: BBtc-AV (designed binder)
chain: DPSSKWEACCDRCACTKSIPPQCHCADIRLNSCHSACESCACYNLYGWTCRCFDITDFCYKPCSG
notes: also called BBItc-AV
With B21 the binding [8] was “binds”.

B22: BBsb3-AV (designed binder)
chain: DPDDEYSKPCCDLCMCTRSMPPQCSCEDIRLNSCHSDCKSCACYNLYGWTCRCLDTNDFCYKPCKSRDD
B22 was tested, and the binding [9] was “binds”.

B23: BBdb-AV (designed binder)
chain: DPSESSKPCCDQCACTKSIPPQCRCTDVRLNSCHSACSSCACYNLYGWTCVCVDMKDFCYEPCK
notes: also called BBIdb-AV
In the case of B23, the binding [8] is reported as “binds”.

B24: BBIt-AV (designed binder)
chain: DDESSKPCCDQCACTKSNPPQCRCSDMRLNSCHSACKSCACYNLYGWTCFCVDITDFCYEPCKPSE
notes: BBI-AV without its 5 C-terminal amino acids; also called truncated BBI-AV; unmodified BBIt-AV
In the case of B24, the binding [10] is reported as “binds”.
